Results on one substance are retold here after article PMC11868815.

These are yes or no findings as the source states them, for the method shown. Binding seen in cells or lysates may run through a third protein.

The assay deals with ATPase Na+/K+ Transporting Subunit Beta 3 (ATP1B3) (human (endogenous in U87MG and U251MG)) (UniProt P54709). Kind of assay: co-IP; lysates of U87MG and U251MG cells; supernatant treated 1.5 h at 4°C with 2 μg of ATP1B3 and PPP1CA antibodies, then protein A/G agarose beads 1.5 h; detection by Western blotting.

Regarding “Protein Phosphatase 1 Catalytic Subunit Alpha (PPP1CA) (from UniProt P62136 1-330)”, the binding result is given as “no binding”.
